Patent US20130251723A1

How the values were obtained:
[1] = biological target: Tyrosine-protein kinase transmembrane receptor ROR1 (human, cell surface) (human); assay: flow cytometry on A549 cells
[2] = biological target: Tyrosine-protein kinase transmembrane receptor ROR1 (human, cell surface) (human); assay: flow cytometry on A549 cells (figure legend)
[3] = biological target: Tyrosine-protein kinase transmembrane receptor ROR1 (human, cell surface) (human); assay: flow cytometry on cancer cell lines (figure legend)
[4] = biological target: Tyrosine-protein kinase transmembrane receptor ROR1 (human, cell surface) (human); assay: flow cytometry on CALU1, H358, PANC-1, H226, H69 and HT-29 cells
[5] = biological target: Tyrosine-protein kinase transmembrane receptor ROR1 (human, cell surface) (human); assay: immunohistochemistry at 20 ug/ml on FFPE or frozen tumour tissue sections
[6] = biological target: Tyrosine-protein kinase transmembrane receptor ROR1 (human, cell surface) (human); assay: flow cytometry on A549 and HT-29 cells
[7] = biological target: Tyrosine-protein kinase transmembrane receptor ROR1 (human, cell surface) (human); assay: flow cytometry on A549 and HT-29 cells (figure legend)

Binder	binding [1]	binding [2]	binding [3]	binding [4]	binding [5]	binding [6]	binding [7]
ROR1_A1 monoclonal antibody (antibody, V domains shown) VH: EVKLVESGGGLVRPGGSLKLSCAVSGFTFSSYAMSWVRQTPEKRLEWVAAINFNRGTTYYSDTVKGRFTISRDNAKNTLYLQLSSLRSEDTAFYYCSRHRYSDYDYAMDYWGQGTSVTVSS VL: DIVMSQSPSSMYASLGERVTITCKASQDINSYLNWFQQKPGKSPKTLIYRANRLVDGVPSRFSGSGSGHDYFLTIRSLEYEDMGIYYCLQYDEFPYTFGGGTKLEIKR	binds	binds	binds	binds	binds	–	–
ROR1_A2 monoclonal antibody (antibody, V domains shown) VH: EVQLLETGGGLVKPGGSLKLSCAASGFTFSTYAMSWVRQTPEKRLEWVAGINSNRGTTYYPDTVKGRFTISRDNAKNTLSLQMTSLRSEDTALYYCVRHRYTNYDYAMDYWGQGTSVTVSS VL: DIKMTQSPSSMYASLGERVTITCKASQDINSYLSWFQQKPGKSPKTLIYRANRLVDGVPSRFSGSGSGQDYSLTISSLEYEDMGIYYCLQYDEFPYTFGGGTKLEIKR	binds	binds	–	–	–	–	–
ROR1_A4 monoclonal antibody (antibody, V domains shown) VH: EVKLVESGGGLVKPGGSLKLSCAASGFTFSNYGMSWVRQTPERRLEWVAAMNNNGASTYYPDTVKGRFTISRDNAKNTLYLQMSSLRSEDTALYFCVRHNNYVDYAMDYWGQGTSVTVSS VL: DILLTQSPSSMYTSLGERVTITCKASQDINSYLSWFQQKPGKSPKTLIYRANKLVDGVPSRFSGSGSGQDYSLTISSLESEDMGIYYCLQYDEFPYTFGGGTKLEIKR	binds	binds	–	–	–	–	–
ROR1_A3 monoclonal antibody (antibody, V domains shown) VH: DVMLVESGGGLVKPGGSLKLSCAASGFTFSSYAMSWVRQTPEKRLEWVAAININRGTTYYSDTVKGRFTISRDNAKNTLYLQLSSLRSEDTALYYCSRHRYSDYDYAMDYWGQGTSVTVSS VL: DIQLTQSPSSMYASLGERVTIACKASQDINSYLSWFQQKPGKSPKTLIHRANRLVDGVPSRFSGSGSGQDYSLTISSLEYEDIGIYYCLQYDEFPYTFGGGTKLEIKR	binds	binds	binds	binds	–	–	–
ROR1_A5 monoclonal antibody (antibody, V domains shown) VH: EVKLVESGGGLVKPGGSLKLSCAASGFTFSNYDMSWVRQSPEKRLEWVAAINRKGHSTYYPDTVQGRFTISRDNAKNTLYLQMSSLRSEDTALYYCVRLDDNYYFFDYWGQGTTLTVSS VL: DIKMTQSPSSMYASLGERVTITCKASQDINSYLSWFQQKPGKSPKTLIYRAKRLIDGVPSRFSGSGSGQDYSLTISSLEYEDMGIYYCLQYDEFPYTFGGGTKLEIKR	binds	binds	–	–	–	–	–

Second part, the binder after the results:

binding [1]	binding [2]	binding [3]	binding [4]	binding [5]	binding [6]	binding [7]	Binder
binds	binds	–	–	–	–	–	ROR1_A10 monoclonal antibody (antibody, V domains shown) VH: EVQLVETGGGLVKPGGSLKLSCAASGFAFSSYAMSWVRQTPEKRLEWVAAINNRGGGTYYPDTVRGRFTISRDNAKNTLYLQMSSLRSADTALYYCVRHDNLNYDYAMDSWGQGTSVTVSS VL: NIVMTQSPSSMYASLGERVTITCKASQDIYSYLSWFQQKPGKSPKTLIYRANRLVDGVPSRFSGSGSGQDYSLTISSLDYEDVGIYYCLQYDEFPYTFGSGTKLEIER
binds	binds	–	–	–	–	–	ROR1_A7 monoclonal antibody (antibody, V domains shown) VH: EVMLVESGGGLVKPGGSLKISCAASGFSFSSYAMSWVRQTPEKSLEWVAAININRGTPYYPDTVKGRFTISRDNAKNTLYLQMSSLRSEDTALYYCVRHRNSNNDYAMDYWGQGTSVTVSS VL: DIVMTQSPSSMYTSLGERVTITCKASQDINSYLSWFQQKPGKSPKTLIYRANRLIDGVPSRFSGSGSGQDYSLTISSLEYEDMGIYYCLQYDEFPFTFGSGTKLEIKR
binds	binds	–	–	–	–	–	ROR1_A6 monoclonal antibody (antibody, V domains shown) VH: EVMLVESGGGLVKPGGSLKLSCAASGFTFSPYAMSWVRQTPEKRLEWVAAINSNRGTTYYPDTVKGRFTISRDNAKNTLYLQMSSLRSEDTAFYYCVRHRYNNYDYAMDYWGQGTSVTVSS VL: DIVMSQSPSSMYASLGERVTITCKASQDINSYLSWFQQKPGKSPKTLTYRANRLVEGVPSRFSGSGSGQDYSLTISSLEYEDMGIYYCLQYDEFPYTFGGGTKLEIKR
binds	binds	–	–	–	–	–	ROR1_A12 monoclonal antibody (antibody, V domains shown) VH: EVQLVESGGGLVKPGGSLKLSCAASGFTFSSYAMSWVRQTPEKRLEWVAAINSNRGTTYYSDTVKGRFTISRDNAKNTLYLQMSSLRSEDTAFYYCTRHRYSDYDYAMDYWGQGTSVTVSS VL: DIKMTQSPSSMYASLGERVTITCKASQDINSYLSWFQQKPGKSPMTLTHRANRLVDGVPSRFSGSGSGQDYSLTISSLENEDMGIYYCLQYDEFPYTFGGGTKLEIKR
binds	binds	–	–	–	–	–	ROR1_A9 monoclonal antibody (antibody, V domains shown) VH: EVQLVETGGDLVKPGGSLKLSCVASGFTFSSNAMSWVRQTPEKRLEWVAAINSKGGGTYYPDTVRGRFTISRDNAKNTLYLQVTSLRSEDTALYYCVSHGDNKYFYAMDYWGQGTSVTVSS VL: NIVMTQSPSSMYASLGERVTITCKASQDINSYLSWFQQKPGKSPKTLIYRANRLVDGVPSRFSGSGSGQDYSLTISSLEYEDMGIYYCLQYDEFPYTFGGGTKLEIKR
–	–	–	–	–	binds	binds	humanized ROR1_A1 antibody (antibody, V domains shown) VH: VQLVESGGGLVQPGGSLRLSCAASGFTFSSYAMSWVRQAPGKGLEWVAAINFNRGTTYYSDTVKGRFTISRDNAKNSLYLQMNSLRAEDTAVYYCSRHRYSDYDYAMDYWGQGTMVTVSS VL: QMTQSPSSLSASVGDRVTITCKASQDINSYLNWFQQKPGKAPKSLIYRANRLVDGVPSKFSGSGSGHDYTLTISSLQPEDFATYYCLQYDEFPYTFGQGTKL
binds	binds	binds	binds	–	–	–	ROR1_A8 monoclonal antibody (antibody, V domains shown) VH: DVQVVESGGGLVKPGGSLKLSCAASGFTFSSYAMSWVRQTPEKRLEWVAAINPNGGSTYYPDTVKGRFTISRDNAKNTLYLQMSGLRSEDTALYYCARLPWSPYTLDYWGQGTSVTVSS VL: NIVMTQSPVSLSMAIGEKVTIRCITNTDIDDAMNWYQQKPGEPPKLLISEGNTLRPGVPSRFSSSGYGTDFVFTIENMLSEDVADYYCLQTDNLPLTFGSGTKLAIKR

No constants are given. Whether binding was seen depends on the method and setting. Binding can be weak; no strength is given.
